Values from PubChem BioAssay AID743121 (NCATS, 2013)

Test: 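Knock-downs that sensitise breast cancer cells to camptothecin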 (primary screen)
System: MDA-MB-231 cells, a human breast cancer line
Reagent: single siRNA against human genes, 20 nM siRNA (0.8 pmol per well)
Time to read-out: 120 h (drug added 48 h after transfection, read 72 h later)
Challenge: camptothecin 20 nM (about EC30) for 72 h; vehicle 0.1% DMSO in parallel plates
Read-out: 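CellTiter-Glo ATP signal, scaled to control siRNA as percent viability; sensitisation given as log2 of untreated divided by camptothecin-treated viability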
Reading the numbers: log2 vehicle/camptothecin viability: higher = stronger sensitisation to camptothecin; viability with camptothecin and viability without drug: higher = more viable cells
Active means: 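Active genes have an RSA gene-level p-value below 0.001, computed from the ratios of their separate siRNAs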
Shown is one part, drawn at random, of about 26,000 reagents tested. 167 of all reagents (0.63%) were called active. 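Calls are per gene from RSA p-values that are not deposited; an individual active-marked siRNA can sensitise only weakly.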 The numbers tell different reagents against one gene apart.

| log2 vehicle/camptothecin viability | viability with camptothecin (% of control) | viability without drug (% of control) | activity call | Target gene | reagent |
| --- | --- | --- | --- | --- | --- |
| -0.212 | 102 | 88.3 | inactive | NTMT2 | 1 |
| -0.282 | 81.8 | 67.3 | inactive | NTMT2 | 2 |
| -0.296 | 130 | 106 | inactive | NTMT2 | 3 |
| -0.319 | 105 | 84.1 | inactive | LONP1 | 1 |
| -0.481 | 82.5 | 59.1 | inactive | LONP1 | 2 |
| -0.0895 | 84.8 | 79.7 | inactive | LONP1 | 3 |
| -0.242 | 102 | 85.9 | inactive | PCSK5 | 1 |
| -0.207 | 110 | 95 | inactive | PCSK5 | 2 |
| -0.00275 | 81 | 80.9 | inactive | PCSK5 | 3 |
| -0.0711 | 92.8 | 88.4 | inactive | PCSK5 | 4 |
| -0.493 | 119 | 84.6 | inactive | UBL3 | 1 |
| -0.412 | 94.2 | 70.8 | inactive | UBL3 | 2 |
| -0.124 | 112 | 103 | inactive | UBL3 | 3 |
| -0.0555 | 87.8 | 84.5 | inactive | UBL3 | 4 |
| 0.0616 | 59 | 61.6 | inactive | CDK7 | 1 |
| 1.78 | 18.4 | 62.9 | inactive | CDK7 | 2 |
| 0.104 | 82.8 | 89 | inactive | CDK7 | 3 |
| -0.0624 | 96.7 | 92.6 | inactive | CDK7 | 4 |
| 0.408 | 21.2 | 28.1 | inactive | NR4A2 | 1 |
| -0.51 | 50.8 | 35.7 | inactive | NR4A2 | 2 |
| -0.304 | 60.2 | 48.8 | inactive | NR4A2 | 3 |
| 0.543 | 61.3 | 89.4 | inactive | NR4A2 | 4 |
| 0.0375 | 87.5 | 89.8 | inactive | NPM1 | 1 |
| -0.271 | 57.7 | 47.9 | inactive | NPM1 | 2 |
| -0.48 | 105 | 75.3 | inactive | NPM1 | 3 |
| -0.236 | 132 | 112 | inactive | NPM1 | 4 |
| -0.389 | 93.2 | 71.2 | inactive | NPM1 | 5 |
| -0.146 | 57.2 | 51.7 | inactive | NPM1 | 6 |
| -0.374 | 61 | 47 | inactive | SMO | 1 |
| -0.235 | 101 | 86.2 | inactive | SMO | 2 |
| 0.103 | 47.9 | 51.4 | inactive | SMO | 3 |
| 0.447 | 62.1 | 84.6 | inactive | SMO | 4 |
| -0.497 | 82.3 | 58.3 | inactive | RAX | 1 |
| -0.0941 | 45.7 | 42.8 | inactive | RAX | 2 |
| 0.000173 | 41.2 | 41.2 | inactive | RAX | 3 |
| -0.688 | 24.2 | 15 | inactive | RAX | 4 |
| 0.282 | 56.8 | 69.1 | inactive | PTPN2 | 1 |
| 0.202 | 89.4 | 103 | inactive | PTPN2 | 2 |
| -0.183 | 79.2 | 69.8 | inactive | PTPN2 | 3 |
| -0.221 | 112 | 95.7 | inactive | PTPN2 | 4 |
| 0.0362 | 93.6 | 95.9 | inactive | RASGRP4 | 1 |
| 0.14 | 59.5 | 65.6 | inactive | RASGRP4 | 2 |
| 0.0119 | 57.2 | 57.7 | inactive | RASGRP4 | 3 |
| -0.409 | 86 | 64.7 | inactive | RASGRP4 | 4 |
| 0.0439 | 85.3 | 88 | inactive | KIF16B | 1 |
| 0.00147 | 82.5 | 82.6 | inactive | KIF16B | 2 |
| 0.0965 | 86.1 | 92.1 | inactive | KIF16B | 3 |
| 0.35 | 64.4 | 82.1 | inactive | KIF16B | 4 |
| -0.429 | 86.8 | 64.4 | inactive | MCC | 1 |
| -0.366 | 96.1 | 74.6 | inactive | MCC | 2 |
| -0.0129 | 70.8 | 70.1 | inactive | MCC | 3 |
| -0.0632 | 89 | 85.2 | inactive | MCC | 4 |
| -0.761 | 60.8 | 35.9 | inactive | INHBB | 1 |
| -0.153 | 123 | 111 | inactive | INHBB | 2 |
| -0.235 | 84.2 | 71.5 | inactive | INHBB | 3 |
| -0.173 | 81.6 | 72.4 | inactive | PMEPA1 | 1 |
| -0.949 | 81.6 | 42.3 | inactive | PMEPA1 | 2 |
| -0.303 | 70.9 | 57.5 | inactive | PMEPA1 | 3 |
| -0.19 | 70.5 | 61.8 | inactive | PMEPA1 | 4 |
| -0.67 | 71 | 44.6 | inactive | KCNMB1 | 1 |
| -0.0636 | 89.7 | 85.8 | inactive | KCNMB1 | 2 |
| -0.219 | 61.7 | 53 | inactive | KCNMB1 | 3 |
| -0.0556 | 96.9 | 93.2 | inactive | KCNMB1 | 4 |
| -0.0906 | 101 | 95 | inactive | MARS2 | 1 |
| -0.0733 | 122 | 116 | inactive | MARS2 | 2 |
| -0.575 | 86.1 | 57.8 | inactive | MARS2 | 3 |
| -0.253 | 82.3 | 69.1 | inactive | IL12B | 1 |
| -0.132 | 76.4 | 69.7 | inactive | IL12B | 2 |
| -0.312 | 69.3 | 55.8 | inactive | IL12B | 3 |
| -0.327 | 18.6 | 14.8 | inactive | IL12B | 4 |

Copied from the list.
Result of NPM1 #1 under “viability with camptothecin (% of control)”: 87.5
For “log2 vehicle/camptothecin viability”, IL12B #4 reads -0.327
For “log2 vehicle/camptothecin viability”, PCSK5 #1 shows -0.242
Value for KIF16B #4 in “log2 vehicle/camptothecin viability”: 0.35
For “activity call”, MARS2 #2 reads inactive
For “log2 vehicle/camptothecin viability”, NR4A2 #2 has -0.51
